Data from PubChem BioAssay AID493014 (National Center for Advancing Translational Sciences (NCATS), 2011).
Some of the results follow. Shown are side measurements of this screen, not its main read-out; they come without a call. Most of these compounds were active or inconclusive in the main read-out, so they are no random draw. The note in brackets gives the kind of curve behind each potency; many fits are weak.

Assay: qHTS Assay to Find Inhibitors of Chronic Active B-Cell Receptor Signaling
Details: ABC-DLBCL IkBa-CBG/CBR reporter, luminescence ratio (green luciferase fused to IkBa over red control in TMD8 lymphoma cells), 4 h
In short: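 Concentration-response series (up to 46 uM) were applied to TMD8 dual-reporter cells for 4 h at 37C with doxycycline. Green/red ratio, after filter-overlap correction, defined %Activity; red signal alone was normalised to basal cells and zero luminescence.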

[1] = measured here: IkBa-CBG green luminescence
[2] = measured here: CBR red luminescence, cell number

With `COc1ccc(/C=N/NC(=O)CCn2cnc(-c3ccccc3)c2-c2ccccc2)cc1` the AC50 [1] was 11.6 µM [falling, partial curve].

With `O=C(/C=C/c1cccc(Cl)c1)c1ccc([N+](=O)[O-])o1` the AC50 [2] was 6.51 µM [falling, partial curve, poor fit].

For `Cn1c(NCCc2ccccc2)cc(=O)n(C)c1=O`, the AC50 [2] was 1.78 µM [rising, full curve].

With `COc1ccc(Cc2nnc(NC(=O)Nc3ccccc3OC)s2)cc1` the AC50 [2] was 2.51 µM [rising, full curve, poor fit].

In the case of `O=[N+]([O-])c1ccc(-n2cc(-c3ccccc3)nn2)cc1`, the AC50 [2] is reported as 0.891 µM [rising, full curve, poor fit].

In the case of `Nc1c(NCCN2CCCCC2)c2ccccc2oc1=O`, the AC50 [2] is reported as 3.98 µM [falling, partial curve, poor fit].

With `O=C(/C=C/c1ccccc1)NC(=S)NNC(=O)c1cnccn1` the AC50 [2] was 10 µM [falling, partial curve].

In the case of `CCCCN(C)CCn1c(=S)[nH]c2ncccc2c1=O`, the AC50 [2] is reported as 1.46 µM [falling, full curve, poor fit].

In the case of `COC(=O)/C=C/C(=O)Nc1ccc(O)c(Cl)c1`, the AC50 [2] is reported as 23.1 µM [falling, single point].

For `CC(=O)Nc1ccccc1C(=O)C(=O)Nc1cccc(C(=O)N2CC(C)CC(C)C2)c1` (stereo not given), the AC50 [2] was 20 µM [falling, single point].

With `CC(=O)c1ccc(N(C(=O)Cc2c[nH]c3ccccc23)C(C(=O)NC2CCCCC2)c2cccs2)cc1` (stereo not given) the AC50 [2] was 0.794 µM [falling, full curve].

With `CCOC(=O)c1c(S(=O)(=O)NCC(=O)Nc2ccc(Cl)c(C(F)(F)F)c2)c(C)n(C)c1C` the AC50 [2] was 35.5 µM [falling, single point].

With `COc1cc(OC)cc(C(=O)Nc2ccccc2NC(C)=O)c1` the AC50 [2] was 29.1 µM [rising, partial curve, poor fit].

With `COc1ccc(CCNC(=O)/C=C/c2ccc3ccccc3n2)cc1OC` the AC50 [2] was 15.8 µM [falling, partial curve].

In the case of `CCCCNC(=O)CSc1nc(Cc2ccccc2)nc2ccccc12`, the AC50 [2] is reported as 35.5 µM [falling, single point].

In the case of `O=C(O)c1cc(O)c2c(c1)[C@@H]([C@H]1c3cc(C(=O)O)cc(O)c3C(=O)c3c(O[C@@H]4O[C@H](CO)[C@@H](O)[C@H](O)[C@H]4O)cccc31)c1cccc(O[C@@H]3O[C@H](CO)[C@@H](O)[C@H](O)[C@H]3O)c1C2=O`, the AC50 [2] is reported as 25.9 µM [falling, single point].

In the case of `COc1cccc(CNC(=O)CN2C(=O)c3ccccc3S2(=O)=O)c1`, the AC50 [2] is reported as 29.1 µM [falling, single point].

With `NC(=O)c1c(NC(=O)Cc2cccs2)sc2c1CCC2` the AC50 [2] was 10.3 µM [rising, partial curve].

With `CN(CC(=O)Nc1ccc(N2CCOCC2)cc1)Cc1cc(=O)n2ccsc2n1` the AC50 [2] was 10 µM [rising, partial curve].

With `CCC(=O)Oc1ccc(-c2cnc3ccccc3n2)cc1` the AC50 [2] was 1.26 µM [rising, partial curve] and the AC50 [1] was 3.55 µM [rising, full curve, poor fit].

In the case of `CCN1CCN(C(=O)c2ccc3c(c2)N(Cc2ccccc2)C(=O)c2ccccc2S3=O)CC1` (stereo not given), the AC50 [2] is reported as 35.5 µM [falling, single point].

In the case of `O=C(O)CCC(=O)Nc1ccc(/C=C/C(=O)C2CC2)cc1`, the AC50 [2] is reported as 3.16 µM [rising, single point].

With `N/C(=N\OC(=O)Cc1cccs1)c1ccc(Br)cc1` the AC50 [2] was 0.731 µM [rising, full curve, poor fit].

In the case of `COc1ccc(/C=C/C(=O)c2cc(Br)ccc(=O)c2O)cc1`, the AC50 [2] is reported as 29.1 µM [falling, single point].

In the case of `COc1ccc(OC)c(NC(=O)C2CCC(CNc3c(N4CCOCC4)c(=O)c3=O)CC2)c1` (stereo not given), the AC50 [2] is reported as 5.01 µM [rising, full curve, poor fit].

In the case of `CC1Cc2ccccc2N1C(=O)CSc1nc2ccccc2o1` (stereo not given), the AC50 [2] is reported as 5.01 µM [rising, single point].

With `COc1ccc(CN2CCC(CO)(CCOc3ccccc3)CC2)c(OC)c1C` the AC50 [2] was 22.4 µM [falling, single point].

For `CC(C)NC(=O)NC(=O)COC(=O)/C=C/c1ccc2c(c1)OCO2`, the AC50 [2] was 11.2 µM [rising, partial curve, poor fit].

For `CC(=O)Nc1cccc(-c2cnc(N)c(C(=O)c3cccnc3)n2)c1`, the AC50 [2] was 5.8 µM [falling, partial curve].

For `Cn1c(-c2ccccc2)cnc1NCc1cc2c(cc1[N+](=O)[O-])OCO2`, the AC50 [2] was 32.6 µM [falling, single point].

In the case of `CCN(C(=O)CSc1nc2cc(C(=O)OC)ccc2c(=O)n1Cc1ccco1)c1cccc(C)c1`, the AC50 [2] is reported as 2.82 µM [falling, single point].

In the case of `Cn1c(C2=C(O)CN(c3ccc4c(c3)OCCO4)C2=N)nc2ccccc21`, the AC50 [2] is reported as 2.82 µM [rising, full curve, poor fit].

For `Cc1cc(C(=O)Nc2cccc3ccccc23)n(-c2ccccc2)n1`, the AC50 [2] was 4.47 µM [falling, full curve].

For `Cc1ccc(NC(=O)Cn2cnc3cc([N+](=O)[O-])ccc3c2=O)cc1`, the AC50 [2] was 2.82 µM [rising, partial curve, poor fit].

For `CNC(=O)/C(C#N)=C/c1c(N2CCCCCC2)nc2c(C)cccn2c1=O`, the AC50 [2] was 10 µM [falling, single point].

For `c1ccc(C2=Nn3c(nnc3-c3ccco3)SC2)cc1`, the AC50 [2] was 14.1 µM [falling, single point].

With `Cc1cc(/C=C2\SC(=S)NC2=O)cc(C)c1O` the AC50 [2] was 0.562 µM [rising, full curve].

For `Cn1nnnc1SCC(=O)Nc1ccc(Br)cc1Cl`, the AC50 [2] was 18.4 µM [rising, single point].

With `COc1ccccc1CNC(=O)C[n+]1ccccc1` the AC50 [2] was 29.1 µM [falling, single point].

In the case of `O=C(NCCc1ccccc1)c1ccccc1NS(=O)(=O)N1CCCC1`, the AC50 [2] is reported as 29.1 µM [rising, single point].

With `CC(C)NC(=O)c1ccc2c(=O)n(Cc3ccco3)c(=S)[nH]c2c1` the AC50 [2] was 3.16 µM [falling, partial curve, poor fit].

For `Cc1ccc(NC(=O)CCC(=O)Nc2nnc(C3CCCCC3)s2)cc1`, the AC50 [2] was 3.55 µM [rising, partial curve].

In the case of `COc1ccc(S(=O)(=O)NCc2ccccn2)cc1NC(=O)c1ccccc1F`, the AC50 [1] is reported as 10 µM [falling, partial curve, poor fit].

In the case of `CCOc1ncccc1C(=O)OC(C)C(=O)Nc1ccc(N2CCOCC2)cc1` (stereo not given), the AC50 [2] is reported as 0.146 µM [rising, partial curve, poor fit].

In the case of `O=C(CNC(=O)c1ccc(-c2ccccc2)cc1)Nc1cccc(CO)c1`, the AC50 [2] is reported as 29.1 µM [falling, single point].

For `Cc1cc(NC(=O)CSc2nc(-c3ccco3)cc(C(F)(F)F)n2)no1`, the AC50 [1] was 10.3 µM [falling, partial curve, poor fit].

With `O=c1c2cn[nH]c2nc(SCc2cc(=O)n3cc(Br)ccc3n2)n1-c1ccc(Br)cc1` the AC50 [2] was 35.5 µM [falling, single point].

With `CNC(=O)c1ccc(-c2nc(-c3ccccc3)cs2)cc1` the AC50 [2] was 5.62 µM [rising, partial curve].

With `Cc1ccc(/C(N)=N/OC(=O)c2cccs2)cc1` the AC50 [2] was 16.4 µM [falling, single point].

In the case of `COc1ccc(S(=O)(=O)N(C)CC(=O)Nc2ccc(C(F)(F)F)cc2)cc1Cl`, the AC50 [2] is reported as 29.1 µM [rising, single point].

For `CCc1ccc(-n2c(SCC(=O)NC(C)CC)nc3n[nH]c(C)c3c2=N)cc1` (stereo not given), the AC50 [2] was 12.6 µM [falling, partial curve, poor fit].

In the case of `CCOc1ccccc1CNC(=O)C1CCCN(c2nc3ccccc3o2)C1` (stereo not given), the AC50 [2] is reported as 14.1 µM [falling, partial curve, poor fit].

For `CCCOc1ccc(Cl)cc1CNc1ccccc1`, the AC50 [2] was 35.5 µM [rising, single point].

With `COc1ccc(NC(=O)CN(C)CC(=O)Nc2ccc(Cl)cc2[N+](=O)[O-])cc1` the AC50 [2] was 4.47 µM [rising, full curve, poor fit].

For `CC(=O)NC(=S)Nc1ccc(NC(=O)COc2ccc(Cl)cc2)cc1`, the AC50 [2] was 23.1 µM [falling, single point].

In the case of `Cc1oc2ccc(OCc3ccc(F)cc3)cc2c1C(=O)O`, the AC50 [2] is reported as 5.62 µM [rising, full curve, poor fit].

In the case of `O=C(NN(c1ccccc1)c1ccccc1)c1ccc([N+](=O)[O-])o1`, the AC50 [2] is reported as 14.1 µM [falling, partial curve].

In the case of `O=C(NCCc1ccccc1)C1CCN(S(=O)(=O)c2cccs2)CC1`, the AC50 [2] is reported as 3.55 µM [rising, full curve, poor fit].

With `O=C(NNC(=O)c1csc(N2CCOCC2)n1)c1ccc(Cl)nc1` the AC50 [2] was 25.9 µM [falling, single point].

In the case of `CSc1nc(=O)n2cccc(C)c2n1`, the AC50 [2] is reported as 29.1 µM [rising, single point].

In the case of `O=S(=O)(c1ccccc1)c1ncc(C(F)(F)F)cc1Cl`, the AC50 [2] is reported as 5.62 µM [falling, full curve, poor fit].

For `CCCCCC(=O)Nc1ccc(C2C(=O)c3ccccc3C2=O)cc1`, the AC50 [2] was 15.8 µM [rising, single point].

With `CC1CCN(CCOc2ccc(Cl)c(Cl)c2)CC1` the AC50 [2] was 29.1 µM [rising, single point].

For `O=C(Nc1c(C(=O)O)oc2ccc(Br)cc12)c1ccccc1`, the AC50 [2] was 10 µM [falling, single point].
